Results reported in article PMC3264577, “RINL, Guanine Nucleotide Exchange Factor Rab5-Subfamily, Is Involved in the EphA8-Degradation Pathway with Odin” (PLoS ONE, 2012).
No constants are given. Whether binding was seen depends on the method and setting. In cells and extracts the contact can be indirect. Binding can be weak; no strength is given. Sequences can lack the tags named with a protein. Values belong to the molecule of their own block, whether it stands above or below them.

Columns and labels:
[1] = molecular target: T1, myc-odin, tyrosine-phosphorylated by co-expression with constitutively active Src (UniProt Q92625); assay: co-IP; myc-odin and V5-RINL co-transfected with FLAG-tagged constitutively active Src or mock into HEK293T; lysates immunoprecipitated with anti-myc
T1 sequence (chain, phosphotyrosine (sites not named), by co-expressed constitutively active Src): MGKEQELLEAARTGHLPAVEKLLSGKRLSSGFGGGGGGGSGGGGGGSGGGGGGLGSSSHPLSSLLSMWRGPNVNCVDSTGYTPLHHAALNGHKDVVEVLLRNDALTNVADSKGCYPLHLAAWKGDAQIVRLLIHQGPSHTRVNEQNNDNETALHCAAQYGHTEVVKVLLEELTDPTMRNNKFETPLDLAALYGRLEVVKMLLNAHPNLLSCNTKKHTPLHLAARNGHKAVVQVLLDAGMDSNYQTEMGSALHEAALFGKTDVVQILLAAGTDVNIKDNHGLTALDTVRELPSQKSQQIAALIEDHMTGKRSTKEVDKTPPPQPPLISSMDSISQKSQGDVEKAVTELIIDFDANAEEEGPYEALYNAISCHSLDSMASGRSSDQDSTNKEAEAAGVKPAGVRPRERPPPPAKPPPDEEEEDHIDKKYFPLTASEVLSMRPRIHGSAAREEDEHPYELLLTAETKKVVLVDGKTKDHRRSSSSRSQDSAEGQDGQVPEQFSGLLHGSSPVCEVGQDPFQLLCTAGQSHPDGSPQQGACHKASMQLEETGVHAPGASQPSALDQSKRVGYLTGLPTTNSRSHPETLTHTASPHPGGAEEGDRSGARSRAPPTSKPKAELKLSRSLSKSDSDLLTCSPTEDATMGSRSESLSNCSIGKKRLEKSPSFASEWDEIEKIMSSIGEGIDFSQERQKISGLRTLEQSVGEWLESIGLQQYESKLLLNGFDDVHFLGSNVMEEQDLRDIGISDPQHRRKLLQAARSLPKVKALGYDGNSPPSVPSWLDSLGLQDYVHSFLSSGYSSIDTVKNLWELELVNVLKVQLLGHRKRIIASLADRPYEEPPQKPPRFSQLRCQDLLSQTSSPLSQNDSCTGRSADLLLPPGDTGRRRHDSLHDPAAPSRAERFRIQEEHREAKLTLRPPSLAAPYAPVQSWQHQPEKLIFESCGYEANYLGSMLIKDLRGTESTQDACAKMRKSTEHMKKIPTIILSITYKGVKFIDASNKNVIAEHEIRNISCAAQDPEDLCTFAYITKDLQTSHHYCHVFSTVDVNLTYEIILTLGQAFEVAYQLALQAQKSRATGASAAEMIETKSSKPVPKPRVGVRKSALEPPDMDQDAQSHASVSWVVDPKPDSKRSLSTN

[2] = molecular target: T2, myc-odin, wild type (UniProt Q92625); assay: as above
T2 sequence: T1 sequence (chain, phosphotyrosine (sites not named), by co-expressed constitutively active Src)

[3] = molecular target: FLAG-RINL-D453A/P457A (human); assay: co-IP; FLAG-RINL wild type or point mutants co-transfected with myc-odin into HEK293T; lysates immunoprecipitated with anti-FLAG, blotted with anti-myc and anti-FLAG
[4] = molecular target: FLAG-RINL-Y494A/T497A (human); assay: as above
[5] = molecular target: myc-RINL (human); assay: co-IP; HEK293T co-transfected with EphA8-FLAG, HaloTag-odin and myc-RINL or mock plasmids; lysates immunoprecipitated with anti-myc

- binding [1]: binds
- binding [2]: binds
Molecule: V5-RINL (human)

- binding [3]: binds
- binding [4]: binds
B1: myc-odin, wild type (protein, UniProt Q92625 1-1134)
chain: T1 sequence (chain, phosphotyrosine (sites not named), by co-expressed constitutively active Src)

- binding [5]: binds
B2: HaloTag-odin (protein, UniProt Q92625 1-1134)
chain: T1 sequence (chain, phosphotyrosine (sites not named), by co-expressed constitutively active Src)
